The M2OR odorant receptor database
Where a chain is given by its changes, count along the chain named. Only a part is listed here, and it is no random draw. Calls are pooled over several reports, among them a noisy single-well screen. The list shows a part of the results.

Key:
Settings in all cases: stereoisomer not certain
[1] = test system: T1, OR8K5
T1 sequence (whole entry): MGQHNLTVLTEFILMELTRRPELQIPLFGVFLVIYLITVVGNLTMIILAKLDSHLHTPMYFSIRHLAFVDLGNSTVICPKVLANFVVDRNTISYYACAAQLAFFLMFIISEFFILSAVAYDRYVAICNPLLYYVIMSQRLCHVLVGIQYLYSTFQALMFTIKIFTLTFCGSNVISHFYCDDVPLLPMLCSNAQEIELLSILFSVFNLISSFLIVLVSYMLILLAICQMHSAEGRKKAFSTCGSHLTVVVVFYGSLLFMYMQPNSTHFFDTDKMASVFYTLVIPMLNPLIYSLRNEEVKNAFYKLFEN
Summary of the method: (§1)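 Each entry records the cell line, G-protein, co-transfected protein and tags used. Methods varied with the source, often transient luciferase assays in mammalian cell lines. A receptor–molecule pair is called responsive (active) if the original authors judged its signal statistically different from baseline and non-responsive (inactive) otherwise.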

[2] = test system: T2, OR8S1
T2 sequence (whole entry): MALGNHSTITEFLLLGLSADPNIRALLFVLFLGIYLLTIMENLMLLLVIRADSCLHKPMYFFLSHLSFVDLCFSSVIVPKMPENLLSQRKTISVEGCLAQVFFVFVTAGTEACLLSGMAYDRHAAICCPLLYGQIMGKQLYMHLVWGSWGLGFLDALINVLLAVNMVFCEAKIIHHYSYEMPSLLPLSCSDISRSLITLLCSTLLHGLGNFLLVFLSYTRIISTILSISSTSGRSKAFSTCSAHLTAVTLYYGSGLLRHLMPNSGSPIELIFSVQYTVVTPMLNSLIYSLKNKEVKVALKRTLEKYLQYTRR
Summary of the method: as §1

[3] = test system: T3, OR8U1
T3 sequence (whole entry): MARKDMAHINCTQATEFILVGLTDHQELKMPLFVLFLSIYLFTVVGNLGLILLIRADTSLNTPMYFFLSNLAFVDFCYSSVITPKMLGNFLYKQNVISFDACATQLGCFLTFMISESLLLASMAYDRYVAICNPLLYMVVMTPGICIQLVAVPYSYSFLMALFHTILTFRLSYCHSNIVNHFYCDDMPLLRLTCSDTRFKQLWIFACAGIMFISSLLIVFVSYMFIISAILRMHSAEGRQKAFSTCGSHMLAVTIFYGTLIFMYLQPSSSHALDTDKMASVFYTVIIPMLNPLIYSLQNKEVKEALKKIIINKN
Summary of the method: as §1

[4] = test system: T4, OR8U8
T4 sequence (whole entry): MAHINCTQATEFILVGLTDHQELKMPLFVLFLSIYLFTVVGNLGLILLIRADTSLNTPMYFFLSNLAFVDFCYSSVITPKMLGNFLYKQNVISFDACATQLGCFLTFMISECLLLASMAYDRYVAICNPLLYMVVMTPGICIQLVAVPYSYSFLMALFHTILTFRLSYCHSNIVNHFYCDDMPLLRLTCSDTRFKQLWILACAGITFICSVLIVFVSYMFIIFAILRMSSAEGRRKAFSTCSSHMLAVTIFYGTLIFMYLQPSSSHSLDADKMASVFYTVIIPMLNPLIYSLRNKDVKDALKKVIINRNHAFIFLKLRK
Summary of the method: as §1

[5] = target: T5, OR8K5 (Homo sapiens) (UniProt Q8NH50)
T5 sequence (whole entry): T1 sequence (whole entry) with A49T, V118M
Summary of the method: as §1

[6] = target: T6, OR8U3 (Homo sapiens) (UniProt Q8NH85)
T6 sequence (whole entry): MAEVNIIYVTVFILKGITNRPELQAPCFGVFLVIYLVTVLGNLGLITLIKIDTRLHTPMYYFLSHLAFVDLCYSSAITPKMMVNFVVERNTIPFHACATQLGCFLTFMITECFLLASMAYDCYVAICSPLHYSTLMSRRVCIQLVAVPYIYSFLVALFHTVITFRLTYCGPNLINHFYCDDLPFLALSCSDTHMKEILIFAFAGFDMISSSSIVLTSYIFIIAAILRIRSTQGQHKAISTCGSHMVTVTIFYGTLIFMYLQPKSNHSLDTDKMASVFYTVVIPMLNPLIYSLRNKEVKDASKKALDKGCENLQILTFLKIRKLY
Summary of the method: as §1

Compound: CCCCCCCC=O
- odorant receptor agonist call [1]: inactive
- odorant receptor agonist call [2]: inactive
- odorant receptor agonist call [3]: inactive
- odorant receptor agonist call [4]: inactive

Compound: CC(C)(C)c1ccc(CCC=O)cc1
- odorant receptor agonist call [1]: inactive
- odorant receptor agonist call [2]: inactive
- odorant receptor agonist call [3]: inactive
- odorant receptor agonist call [4]: inactive

Compound: CC(=O)OC1CC2CCC1(C)C2(C)C (centres undefined)
- odorant receptor agonist call [1]: inactive
- odorant receptor agonist call [2]: inactive
- odorant receptor agonist call [3]: inactive
- odorant receptor agonist call [4]: inactive

Compound: CCCCCC(=O)O
- odorant receptor agonist call [1]: inactive
- odorant receptor agonist call [2]: inactive
- odorant receptor agonist call [3]: inactive
- odorant receptor agonist call [4]: inactive

Compound: CC(=O)OC(C)(C)C1CC=C(C)CC1 (centres undefined)
- odorant receptor agonist call [1]: inactive
- odorant receptor agonist call [2]: inactive
- odorant receptor agonist call [3]: inactive
- odorant receptor agonist call [4]: inactive

Compound: O=CCc1ccccc1
- odorant receptor agonist call [1]: inactive
- odorant receptor agonist call [2]: inactive
- odorant receptor agonist call [3]: inactive
- odorant receptor agonist call [4]: inactive

Compound: CC(=O)c1ccccc1
- odorant receptor agonist call [5]: inactive
- odorant receptor agonist call [1]: inactive
- odorant receptor agonist call [2]: inactive
- odorant receptor agonist call [3]: inactive
- odorant receptor agonist call [6]: active
- odorant receptor agonist call [4]: inactive

Compound: CC(=O)OCC=C(C)CCC=C(C)C
- odorant receptor agonist call [1]: inactive
- odorant receptor agonist call [2]: inactive
- odorant receptor agonist call [3]: inactive
- odorant receptor agonist call [4]: inactive
